Here are results for one substance from US20090011974A1, “Scavenger Receptor B1 (Cla-1) Targeting for the Treatment of Infection, Sepsis and Inflammation” (priority 2002, published 2009).

This assay deals with T1, Scavenger receptor BI (SR-BI/CLA-1) of mouse RAW 264.7 monocyte-macrophages (mouse) (UniProt Q61009).
T1 sequence (looked up): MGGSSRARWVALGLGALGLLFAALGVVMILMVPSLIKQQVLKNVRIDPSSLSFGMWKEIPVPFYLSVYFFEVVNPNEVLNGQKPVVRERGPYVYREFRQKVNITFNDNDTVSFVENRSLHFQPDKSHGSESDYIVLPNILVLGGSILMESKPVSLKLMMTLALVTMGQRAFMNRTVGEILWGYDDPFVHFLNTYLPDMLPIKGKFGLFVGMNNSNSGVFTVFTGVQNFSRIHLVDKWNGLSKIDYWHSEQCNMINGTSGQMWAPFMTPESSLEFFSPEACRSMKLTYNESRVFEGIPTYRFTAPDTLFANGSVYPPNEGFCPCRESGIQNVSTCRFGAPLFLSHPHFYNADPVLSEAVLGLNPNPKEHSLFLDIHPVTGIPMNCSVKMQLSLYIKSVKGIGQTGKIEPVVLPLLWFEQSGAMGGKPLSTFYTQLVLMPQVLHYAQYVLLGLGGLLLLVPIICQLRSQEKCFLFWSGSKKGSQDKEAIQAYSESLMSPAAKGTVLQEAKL
Put plainly: 125I-HDL competition binding on ice on RAW 264.7 cells (endogenous SR-BI).

These are yes or no findings as the source states them, for the method shown. Binding can be weak; no strength is given.

For the substance “Human apoE-free high-density lipoprotein HDL2+3 (1.072<d<1.216)”, the binding entry is “binds”.
